# Reference: the supplement of paper PMC7830784
# Where a name gives a salt, the structure may show the parent alone. The list shows a part of the results. Single values are uncertain here, since repeats match poorly. Starred links: 1 amine or outer side, 2 acyl side, 3 side chain; linkers in the order of their positions; H or OH if unused. Positions of bridges follow the written chain, without caps; N, C: chain ends. Non-standard residues stand in square brackets, D forms with d. Residues, ends and D or L forms follow the SMILES beside them. ξ: configuration not given here. *: point of attachment. X2 = N=C1NCCC([C@H](N[*:1])C(=O)[*:2])N1; ΔAla(Z-3-ureido) = NC(=O)N/C=C(\N)C(=O)O; X4 = O=C([C@H](N[*:1])C1CCC(O)CC1)[*:2]; X6 = O=C(C(N[*:1])C1CCC(O)C(Cl)C1)[*:2]; X5 = O=C(C(N[*:1])C1CCC(O)CC1)[*:2]; aThr = C[C@H](O)[C@H](N)C(=O)O; dOrn = NCCC[C@@H](N)C(=O)O; ξβ3hOrn = NCCCC(N)CC(=O)*; X3 = CCC/C=C\C=C/C(=O)*; Dap = NC[C@H](N)C(=O)O; ξN = NC(=O)CC(N)C(=O)O
# Tested on: Brugia pahangi adult female
# Test: motility inhibition on day 3 relative to DMSO vehicle; higher = more active
# Conditions: 10 µM; 3 days
row,Structure (SMILES),motility inhibition on day 3
1,COc1ccc(O)cc1 [mequinol],12.9%
2,CC(=O)NC(Cc1ccccc1)C(=O)O (stereo unspecified) [afalanine],22.1%
3,CCCCCCCCCCCCCCCCCCCCCCO [docosanol],< 0%
4,CN[C@@H]1[C@@H](O[C@H]2O[C@H](CO)[C@@H](N)[C@H](O)[C@H]2O)OC2C[C@@H](N)[C@@H](O[C@H]3[C@H](O)[C@@H](O)[C@H](N)C[C@@H]3N)OC2[C@@H]1O (stereo partly specified) [apramycin sulfate],1.34%
5,CC12CCC(CC1=O)C2(C)C (stereo unspecified) [camphor (1r)],< 0%
6,C[C@@H]1NC(=O)[C@@H](N)CNC(=O)[C@H](C2CCNC(=N)N2)NC(=O)/C(=C/NC(N)=O)NC(=O)[C@H](CNC(=O)CC(N)CCCN)NC1=O.N=C1NCC[C@H]([C@@H]2NC(=O)/C(=C/NC(N)=O)NC(=O)[C@H](CNC(=O)C[C@@H](N)CCCN)NC(=O)[C@H](CO)NC(=O)[C@@H](N)CNC2=O)N1 [capreomycin sulfate] (H-[Dap]S[Dap](ξβ3hOrn)[ΔAla(Z-3-ureido)][X2]; lactam 1-C),< 0%
7,C[C@](N)(Cc1ccc(O)c(O)c1)C(=O)O [L-alpha-Methyl DOPA],17.3%
8,Clc1ccc(C(Cn2ccnc2)OCc2ccsc2Cl)c(Cl)c1 (stereo unspecified) [tioconazole],99.5%
9,C[C@H]1c2cccc(O)c2C(=O)C2=C(O)[C@]3(O)C(=O)C(C(N)=O)=C(O)[C@@H](N(C)C)[C@@H]3[C@@H](O)[C@@H]21 [doxycycline hydrochloride],< 0%
10,O=C1/C(=C/c2cccs2)CCC/C1=C\c1cccs1 [tenylidone],58.5%
11,CCOC(=O)COc1ccc2c(=O)cc(-c3ccccc3)oc2c1 [efloxate],2.99%
12,O=C(O)C(=O)O.[NH-][C@@H]1CCCC[C@H]1[NH-].[Pt+2] [oxaliplatin],11.9%
13,CC(C)C(=O)Oc1ccc(CO)cc1[C@H](CCN(C(C)C)C(C)C)c1ccccc1 [Fesoterodine fumarate],< 0%
14,Cc1ccc(NC(=O)c2ccc(CN3CCN(C)CC3)cc2)cc1Nc1nccc(-c2cccnc2)n1 [imatinib],27%
15,"Cc1cc(C(C)(C)C)c(O)c(C(C)(C)C)c1 [2,6-di-t-butyl-4-methylphenol]",1.62%
16,C#CCN[C@@H]1CCc2ccccc21 [rasagiline],25.2%
17,NC(=O)CCC/N=C(\c1ccc(Cl)cc1)c1cc(F)ccc1O [Progabide],2.25%
18,CCOc1nc2cccc(C(=O)OCc3oc(=O)oc3C)c2n1Cc1ccc(-c2ccccc2-c2noc(=O)[nH]2)cc1 [azilsartan kamedoxomil],< 0%
19,O=C(O)c1cn(C2CC2)c2cc(N3CCNCC3)c(F)cc2c1=O [ciprofloxacin],1.97%
20,CCc1nc(N)nc(N)c1-c1ccc(Cl)cc1 [pyrimethamine],< 0%
21,CC(=O)[C@@]1(O)CC[C@H]2[C@@H]3C[C@H](C)C4=CC(=O)C=C[C@]4(C)[C@@]3(F)[C@@H](O)C[C@@]21C [fluorometholone],28.6%
22,CCC/C=C\C=C/C(=O)N[C@@H](CC(N)=O)C(=O)NC(CC(N)=O)C(=O)N[C@@H](C(=O)N[C@H](CCCN)C(=O)N[C@@H](C(=O)N[C@@H](C(=O)N[C@@H](C(=O)N[C@H](C(=O)N[C@@H](Cc1ccccc1)C(=O)N[C@H](CCCN)C(=O)NC(C(=O)N[C@H](C(=O)NC(C(=O)NCC(=O)N[C@@H](CC(C)C)C(=O)N[C@H](C)C(=O)NC(C(=O)O)C1CCC(O)C(Cl)C1)C1CCC(O)CC1)[C@H](C)O)C1CCC(O)CC1)[C@H](C)O)C1CCC(O)CC1)C1CCC(O)CC1)[C@H](C)O)C1CCC(O)CC1 (stereo partly specified) [ramoplanin [a2 shown; 2mm]] (X3-N[ξN][X4][dOrn][dT][X4][X4][aThr]F[dOrn][X5][aThr][X5]GL[dA][X6]-OH),< 0%

row,Structure (SMILES),motility inhibition on day 3
1,CN1CC(=O)N2[C@H](c3ccc4c(c3)OCO4)c3[nH]c4ccccc4c3C[C@@H]2C1=O [tadalafil],24.4%
2,C1CCC(C(CC2CCCCN2)C2CCCCC2)CC1 (stereo unspecified) [perhexiline maleate],97.1%
3,CCCN1CCCC[C@H]1C(=O)Nc1c(C)cccc1C,14.1%
4,COc1cc(C(=O)NCc2ccc(OCCN(C)C)cc2)cc(OC)c1OC [trimethobenzamide hydrochloride],9.51%
5,O=C(O)COCCN1CCN(C(c2ccccc2)c2ccc(Cl)cc2)CC1 (stereo unspecified) [cetirizine hydrochloride],14.6%
6,CCCCC(CC)CCC(CC(C)C)OS(=O)(=O)O (stereo unspecified) [sodium tetradecyl sulfate],< 0%
7,N[C@@H]1CONC1=O [D-Cycloserine],< 0%
8,CC(=O)O[C@]1(C(C)=O)CC[C@H]2[C@@H]3C=C(Cl)C4=CC(=O)[C@@H]5C[C@@H]5[C@]4(C)[C@H]3CC[C@@]21C [cyproterone acetate],23.5%
9,N=C(N)c1ccc(/C=C/c2ccc(C(=N)N)cc2O)cc1 [Hydroxystilbamidine bis(methanesulfonate)],< 0%
10,Clc1ccc(CO/N=C(\Cn2ccnc2)c2ccc(Cl)cc2Cl)c(Cl)c1 [oxiconazole nitrate],40.5%
11,C#C[C@]1(OC(C)=O)CC[C@H]2[C@@H]3CCC4=CC(=NO)CC[C@@H]4[C@H]3CC[C@@]21CC (mixture of isomers) [norgestimate],8.31%
12,CCCc1c2oc(C(=O)O)cc(=O)c2cc2c(=O)cc(C(=O)O)n(CC)c12 [Nedocromil],< 0%
13,COc1ccc2cc([C@H](C)CO)ccc2c1 [naproxol],8.15%
14,O=C1c2ccccc2C(=O)C1c1ccc(Cl)cc1 [chlorindione],< 0%
15,Clc1ccc(Cn2c(CN3CCCC3)nc3ccccc32)cc1 [clemizole hydrochloride],78.3%
16,COc1cc2nc(N(C)CCCNC(=O)C3CCCO3)nc(N)c2cc1OC (stereo unspecified) [alfuzosin hydrochloride],20.8%
17,CCCN(CCc1cccs1)C1CCc2c(O)cccc2C1 (racemic) [rac-Rotigotine Hydrochloride],< 0%
18,CCCCCCCCCCCCCCCC(=O)OC[C@@H](NC(=O)C(Cl)Cl)[C@H](O)c1ccc([N+](=O)[O-])cc1 [chloramphenicol palmitate],32.6%
19,NC[C@@H]1CC[C@@H](N)[C@@H](O[C@H]2[C@H](O)[C@@H](O[C@H]3O[C@H](CO)[C@@H](O)[C@H](N)[C@H]3O)[C@H](N)C[C@@H]2N)O1 [dibekacin],21.5%
20,CC1=C(/C=C/C(C)=C/C=C/C(C)=C/C(=O)O)C(C)(C)CCC1 [tretinon],8.34%
21,N=C(N)NS(=O)(=O)c1ccc(N)cc1 [sulfaguanidine],< 0%
22,CC(=O)Oc1ccccc1C(=O)O [aspirin],< 0%

row,Structure (SMILES),motility inhibition on day 3
1,Cc1ncc(CO)c(CO)c1O [pyridoxine],5.99%
2,COc1cc2c3cc1Oc1cc(ccc1O)C[C@@H]1c4c(cc(OC)c(O)c4Oc4ccc(cc4)C[C@@H]3N(C)CC2)CC[N+]1(C)C [tubocurarine chloride],< 0%
3,CC1(C)[C@H](C(=O)O)N2C(=O)C[C@H]2S1(=O)=O [sulbactam],8.34%
4,CC1=C(C(=O)O)N2C(=O)[C@@H](NC(=O)[C@H](N)C3=CCC=CC3)[C@H]2SC1 [cephradine],11.6%
5,N[C@@H](CCC(=O)N[C@@H](CS)C(=O)NCC(=O)O)C(=O)O [glutathione],< 0%
6,COc1cc(C(=O)NCCCCCC(=O)O)cc(OC)c1OC [capobenic acid],9.45%
7,CCc1c(C)[nH]c2c1C(=O)C(CN1CCOCC1)CC2 (stereo unspecified) [Molindone Hydrochloride],0.93%
8,CCCN(CCC)S(=O)(=O)c1ccc(C(=O)O)cc1 [probenecid],14.8%
9,CCN(CC)C(=O)c1cccnc1 [nikethamide],42.3%
10,CCN(CC)C(=O)c1cccc(C)c1 [deet],10.4%
11,C[C@]12CC[C@@H]3c4ccc(O)cc4CC[C@H]3[C@@H]1CC[C@@H]2O [estradiol],7.8%
12,NC(Cc1cc(I)c(Oc2cc(I)c(O)c(I)c2)c(I)c1)C(=O)O (stereo unspecified) [thyroxine],28.1%
13,CN(C)CC/C=C1/c2ccccc2Sc2ccc(Cl)cc21 [chlorprothixene hydrochloride],15.5%
14,CC(=O)[C@H]1CC[C@H]2[C@@H]3CCC4=CC(=O)CC[C@]4(C)[C@H]3CC[C@]12C [progesterone],12.6%
15,COc1ccc2[nH]c([S+]([O-])Cc3ncc(C)c(OC)c3C)nc2n1 (stereo unspecified) [tenatoprazole],< 0%
16,O=C(O)CCCCC(=O)O [adipic acid],0.305%
17,CN(C)CCOC(c1ccccc1)c1ccccc1 [Diphenhydramine hydrochloride],< 0%
18,COc1cc(O)c(C(=O)c2ccccc2)cc1S(=O)(=O)O [sulisobenzone],2.73%
19,N=C(N)NC(=O)Cc1c(Cl)cccc1Cl [guanfacine hydrochloride],13.6%
20,CCCCCCCCCC(=O)N[C@@H](Cc1c[nH]c2ccccc12)C(=O)N[C@@H](CC(N)=O)C(=O)N[C@@H](CC(=O)O)C(=O)N[C@@H]1C(=O)NCC(=O)N[C@@H](CCCN)C(=O)N[C@@H](CC(=O)O)C(=O)N[C@H](C)C(=O)N[C@@H](CC(=O)O)C(=O)NCC(=O)N[C@H](CO)C(=O)N[C@@H]([C@H](C)CC(=O)O)C(=O)N[C@@H](CC(=O)c2ccccc2N)C(=O)O[C@@H]1C [daptomycin (5 millimolar/dmso)],8.94%
21,C[n+]1cc2c3c(ccc2c2ccc4cc5c(cc4c21)OCO5)OCO3 [Sanguinarine chloride],95.2%
22,Clc1ccc(CSC(Cn2ccnc2)c2ccc(Cl)cc2Cl)cc1 (stereo unspecified) [sulconazole nitrate],98.3%

# Molecules from the list above that have a thiophene ring, fused or not, in the order listed:
row,Structure (SMILES),motility inhibition on day 3
8,Clc1ccc(C(Cn2ccnc2)OCc2ccsc2Cl)c(Cl)c1 (stereo unspecified) [tioconazole],99.5%
10,O=C1/C(=C/c2cccs2)CCC/C1=C\c1cccs1 [tenylidone],58.5%
17,CCCN(CCc1cccs1)C1CCc2c(O)cccc2C1 (racemic) [rac-Rotigotine Hydrochloride],< 0%
